# These are yes or no findings as the source states them, for the method shown. Binding seen in cells or lysates may run through a third protein. Some results given as binding are weak or reduced against the parent protein; the word gives no strength.
# Protein sequences, listed by entry. Tags and fused reporters are not part of them.
# UniProt P06730: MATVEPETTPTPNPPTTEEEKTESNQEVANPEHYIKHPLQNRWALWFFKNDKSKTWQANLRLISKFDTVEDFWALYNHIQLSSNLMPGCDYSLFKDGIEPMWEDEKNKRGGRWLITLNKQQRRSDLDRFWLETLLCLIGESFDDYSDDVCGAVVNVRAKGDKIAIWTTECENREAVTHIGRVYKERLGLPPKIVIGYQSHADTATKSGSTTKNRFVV
# B1: eIF4E-binding protein 2 (4E-BP2) (protein, UniProt Q13542 1-120)
# chain: MSSSAGSGHQPSQSRAIPTRTVAISDAAQLPHDYCTTPGGTLFSTTPGGTRIIYDRKFLLDRRNSPMAQTPPCHLPNIPGVTSPGTLIEDSKVEVNNLNNLNNHDRKHAVGDDAQFEMDI
# Legend:
# [1] = molecular target: eIF4E (human (endogenous in CRC, EC and PDAC cell lines)) (UniProt P06730); assay: co-IP; eIF4E immunoprecipitated with anti-eIF4E antibody (sc-271480) and Protein G PLUS-Agarose from cell lysates (50 mM Tris-HCl pH 7.5, 150 mM NaCl, 1 mM EDTA, 1% IGEPAL, 10% glycerol), 4°C; cells treated with vehicle or 20 uM DT-061 for 3 h; immunoblot
# [2] = molecular target: eIF4E (human (endogenous in CRC, EC and PDAC cell lines)) (UniProt P06730); assay: pull-down; cap affinity assay: m7GTP-agarose beads capture eIF4E and eIF4E-associated proteins from cell lysates (50 mM Tris pH 7.4, 100 mM NaCl, 1 mM EDTA, 1% Triton X-100), overnight at 4°C, 4 washes; cells treated with vehicle or 20 uM DT-061 for 3 h; immunoblot
binder,measurement,setting,value
B1,binding,[1],binds
same,binding,[2],binds
